For the test, the target named is MYC-MYO7A (UniProt Q13402). In words: co-IP; co-expressed in 293T cells; immunoprecipitation (α-MYC in Fig. 6a) followed by immunoblotting; lysis in 50 mM Tris pH 7.5, 150 mM NaCl, 0.1% Triton X-100, 10% glycerol, 1 mM EDTA. For orientation: Immunoblotting shows a protein as a band on a membrane.

Protein sequences, listed by entry. Tags and fused reporters are not part of them. Lines headed by an entry give the natural chain unless they say otherwise; changes in a name come on top.
UniProt Q13402: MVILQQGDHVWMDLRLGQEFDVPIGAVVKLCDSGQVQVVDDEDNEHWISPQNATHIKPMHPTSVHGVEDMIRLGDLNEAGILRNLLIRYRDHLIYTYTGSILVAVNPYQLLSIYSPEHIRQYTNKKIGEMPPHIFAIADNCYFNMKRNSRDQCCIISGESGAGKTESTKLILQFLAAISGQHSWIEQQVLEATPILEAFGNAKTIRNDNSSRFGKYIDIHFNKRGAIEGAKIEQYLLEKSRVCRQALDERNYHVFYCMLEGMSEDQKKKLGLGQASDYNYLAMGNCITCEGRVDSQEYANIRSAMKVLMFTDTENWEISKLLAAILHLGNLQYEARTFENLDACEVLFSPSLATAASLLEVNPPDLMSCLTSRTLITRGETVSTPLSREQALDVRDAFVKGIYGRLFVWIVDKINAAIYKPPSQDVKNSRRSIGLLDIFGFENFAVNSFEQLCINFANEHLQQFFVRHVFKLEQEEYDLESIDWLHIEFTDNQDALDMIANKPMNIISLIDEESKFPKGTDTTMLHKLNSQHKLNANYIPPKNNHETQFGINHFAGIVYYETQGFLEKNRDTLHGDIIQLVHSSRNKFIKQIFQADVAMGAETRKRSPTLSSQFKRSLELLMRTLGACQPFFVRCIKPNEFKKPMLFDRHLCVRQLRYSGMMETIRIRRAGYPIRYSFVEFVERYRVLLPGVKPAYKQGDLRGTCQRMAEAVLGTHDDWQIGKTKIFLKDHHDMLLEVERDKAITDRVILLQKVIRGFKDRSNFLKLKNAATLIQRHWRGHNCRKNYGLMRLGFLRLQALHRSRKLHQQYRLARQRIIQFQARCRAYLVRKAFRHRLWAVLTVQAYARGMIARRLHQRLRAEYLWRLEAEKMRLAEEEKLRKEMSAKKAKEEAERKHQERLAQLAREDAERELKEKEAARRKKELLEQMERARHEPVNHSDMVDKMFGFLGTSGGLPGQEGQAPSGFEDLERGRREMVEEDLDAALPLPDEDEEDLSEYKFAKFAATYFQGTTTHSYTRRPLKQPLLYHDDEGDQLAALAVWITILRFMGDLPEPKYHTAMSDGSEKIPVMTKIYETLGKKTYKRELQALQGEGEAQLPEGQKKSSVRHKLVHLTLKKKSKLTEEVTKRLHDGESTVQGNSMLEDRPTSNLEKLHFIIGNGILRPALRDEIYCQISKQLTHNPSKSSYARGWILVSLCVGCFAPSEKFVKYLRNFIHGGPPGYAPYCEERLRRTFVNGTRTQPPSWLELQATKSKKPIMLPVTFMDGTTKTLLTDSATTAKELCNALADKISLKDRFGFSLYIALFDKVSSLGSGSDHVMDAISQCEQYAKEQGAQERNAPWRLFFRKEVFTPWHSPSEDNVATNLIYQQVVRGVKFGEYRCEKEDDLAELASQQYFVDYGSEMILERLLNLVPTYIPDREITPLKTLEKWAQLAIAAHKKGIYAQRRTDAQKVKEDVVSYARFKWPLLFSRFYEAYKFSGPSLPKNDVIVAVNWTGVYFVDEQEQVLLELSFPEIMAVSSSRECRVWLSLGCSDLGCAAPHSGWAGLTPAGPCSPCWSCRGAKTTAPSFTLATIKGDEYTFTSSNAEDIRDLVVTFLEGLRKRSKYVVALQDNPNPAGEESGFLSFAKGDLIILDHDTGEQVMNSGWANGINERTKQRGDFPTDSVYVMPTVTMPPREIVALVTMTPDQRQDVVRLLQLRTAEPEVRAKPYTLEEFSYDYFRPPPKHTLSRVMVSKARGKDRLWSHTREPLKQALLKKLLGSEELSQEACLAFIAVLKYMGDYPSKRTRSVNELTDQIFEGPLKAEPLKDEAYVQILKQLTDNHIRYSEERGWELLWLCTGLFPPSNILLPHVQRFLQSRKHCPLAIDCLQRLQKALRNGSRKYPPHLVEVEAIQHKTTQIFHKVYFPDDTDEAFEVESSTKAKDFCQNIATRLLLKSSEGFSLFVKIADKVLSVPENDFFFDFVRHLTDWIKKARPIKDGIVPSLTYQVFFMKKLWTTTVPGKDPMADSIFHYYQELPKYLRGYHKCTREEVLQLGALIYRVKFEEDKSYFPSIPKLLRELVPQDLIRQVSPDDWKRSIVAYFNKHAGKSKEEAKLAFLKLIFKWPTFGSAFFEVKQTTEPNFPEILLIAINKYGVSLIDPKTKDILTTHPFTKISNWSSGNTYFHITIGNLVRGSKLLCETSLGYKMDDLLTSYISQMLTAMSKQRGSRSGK
UniProt P55211: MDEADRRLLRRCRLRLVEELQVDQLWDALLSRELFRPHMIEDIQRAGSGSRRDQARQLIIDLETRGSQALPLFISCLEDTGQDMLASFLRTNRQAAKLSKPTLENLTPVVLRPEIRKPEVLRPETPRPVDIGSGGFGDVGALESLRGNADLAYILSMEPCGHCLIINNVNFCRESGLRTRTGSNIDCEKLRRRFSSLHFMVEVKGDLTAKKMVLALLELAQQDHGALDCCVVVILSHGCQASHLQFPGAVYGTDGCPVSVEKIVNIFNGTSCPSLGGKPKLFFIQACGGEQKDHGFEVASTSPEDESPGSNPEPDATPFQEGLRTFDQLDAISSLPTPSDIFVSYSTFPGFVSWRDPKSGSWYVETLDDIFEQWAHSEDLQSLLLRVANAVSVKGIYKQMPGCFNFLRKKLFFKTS

Results are given in words; binding and its absence hold for the method and conditions named. In cells and extracts the contact can be indirect.

As to V5-CASP9 (from UniProt P55211) (enzyme), the binding entry is listed as “no binding”.

The values above are taken from publication PMC4792956.
